Assay results as given in PubChem BioAssay AID330 (DTP/NCI, 2004).
The list does not hold the whole screen: it gathers tests that were run many times, whatever their T/C, doses with no T/C, and many T/C values between a quarter and a half above the control. Further doses and runs are listed elsewhere. T/C: endpoint of the treated group in % of that of the vehicle group. Some doses have a count of surviving animals in place of a T/C: the source files T/C as zero there, which appears to mark a toxic dose or a test without result, not a measured value. Some doses without a T/C left all or most animals alive at the check, yet need not have been tolerated: the source hardly ever lists a survival T/C far under the control, and the zero likely stands for such cases as well. Counts of survivors are from the toxicity check (mostly the fifth day) where no day follows; animals may have died later. Schedule codes are those of the source, taken here to give the interval after Q, in days (D) or hours (H), and the number of doses after X. Marks such as (2×) count equal records among those shown. Some entries hold several experiments; the results are listed from low to high. For survival time, this PubChem deposit counts one and a half times the control or more as active, and values a quarter to a half above the control carry no call in these data; other NCI protocols may use other cut-offs. Some T/C values carry the count of animals alive at the toxicity check (mostly the fifth day); without a count, all were alive then.

System: P388 leukemia ip, CD2F1 mice, survival T/C
Test: NCI In Vivo Anticancer Drug Screen. Data for tumor model P388 Leukemia (intraperitoneal) in CD2F1 (CDF1) mice
Settings: T/C endpoint: median survival time, higher T/C = longer survival
[1] = dose: 8.0 mg/kg/injection, schedule: Q01DX009 (ip), vehicle: water

For `N[C@@H](Cc1ccc(N(CCCl)CCCl)cc1)C(=O)O`, the T/C (dose: 0.06 mg/kg/injection, schedule: Q01DX009 (ip), vehicle: saline) was 133 % of control, the T/C (dose: 0.13 mg/kg/injection, schedule: Q01DX009 (ip), vehicle: saline) was 139 % of control and the T/C (dose: 0.25 mg/kg/injection, schedule: Q01DX009 (ip), vehicle: suspension in saline) was 126 % of control. For the same compound, the T/C (dose: 0.5 mg/kg/injection, schedule: Q01DX005 (ip), vehicle: saline) was 126 % of control, the T/C (dose: 0.5 mg/kg/injection, schedule: Q01DX009 (ip), vehicle: suspension in saline) was 138 % of control and the T/C (dose: 0.5 mg/kg/injection, schedule: Q01DX009 (ip), vehicle: water) was 146, 149, 182, 188, 206 % of control. For the same compound, the T/C (dose: 0.5 mg/kg/injection, schedule: Q04DX003 (ip), vehicle: saline) was 134 % of control, the T/C (dose: 0.75 mg/kg/injection, schedule: Q01DX009 (ip), vehicle: Klucel (hydroxypropylcellulose) (HPC)) was 137 % of control and the T/C (dose: 1.0 mg/kg/injection, schedule: Q01DX005 (ip), vehicle: saline, evaluated on day 20) was 191 % of control. For the same compound, the T/C (dose: 1.0 mg/kg/injection, schedule: Q01DX005 (ip), vehicle: saline, evaluated on day 30) was 180 and 187 % of control, the T/C (dose: 1.0 mg/kg/injection, schedule: Q01DX005 (ip), vehicle: saline, evaluated on day 45) was 156 % of control and the T/C (dose: 1.0 mg/kg/injection, schedule: Q01DX009 (ip), vehicle: suspension in saline) was 137 % of control. The T/C (dose: 1.0 mg/kg/injection, schedule: Q01DX009 (ip), vehicle: water) was 168, 177, 198, 219, 234 % of control, the T/C (dose: 1.0 mg/kg/injection, schedule: Q03HX008 (ip), vehicle: saline, evaluated on day 50) was 180, 357, 454 % of control and the T/C (dose: 1.0 mg/kg/injection, schedule: Q03HX008 (ip), vehicle: saline, evaluated on day 60) was 190 and 245 % of control. The T/C (dose: 1.0 mg/kg/injection, schedule: Q04DX003 (ip), vehicle: saline) was 145 % of control, the T/C (dose: 1.25 mg/kg/injection, schedule: Q04DX003 (ip), vehicle: water) was 130 % of control and the T/C (dose: 2.0 mg/kg/injection, schedule: Q01DX001 (ip), vehicle: suspension in saline) was 144 % of control. For the same compound, the T/C (dose: 2.0 mg/kg/injection, schedule: Q01DX005 (ip), vehicle: saline, evaluated on day 20) was 192 % of control, the T/C (dose: 2.0 mg/kg/injection, schedule: Q01DX005 (ip), vehicle: saline, evaluated on day 30) was 189 and 232 % of control and the T/C (dose: 2.0 mg/kg/injection, schedule: Q01DX005 (ip), vehicle: saline, evaluated on day 45) was 197 % of control. The T/C (dose: 2.0 mg/kg/injection, schedule: Q01DX009 (ip), vehicle: suspension in saline) was 142 % of control, the T/C (dose: 2.0 mg/kg/injection, schedule: Q01DX009 (ip), vehicle: water) was 175, 201, 225, 254, 277 % of control and the T/C (dose: 2.0 mg/kg/injection, schedule: Q03HX008 (ip), vehicle: saline, evaluated on day 50) was 357, 384, 454 % of control. For the same compound, the T/C (dose: 2.0 mg/kg/injection, schedule: Q03HX008 (ip), vehicle: saline, evaluated on day 60) was 222 and 600 % of control, the T/C (dose: 2.5 mg/kg/injection, schedule: Q04DX003 (ip), vehicle: saline, evaluated on day 30) was 202 and 216 % of control and the T/C (dose: 2.5 mg/kg/injection, schedule: Q04DX003 (ip), vehicle: saline, evaluated on day 45) was 177 and 197 % of control. The T/C (dose: 2.5 mg/kg/injection, schedule: Q04DX003 (ip), vehicle: saline, evaluated on day 50) was 216 % of control, the T/C (dose: 2.5 mg/kg/injection, schedule: Q04DX003 (ip), vehicle: saline, evaluated on day 55) was 198 % of control and the T/C (dose: 2.5 mg/kg/injection, schedule: Q04DX003 (ip), vehicle: water, evaluated on day 30) was 185, 199, 206, 210, 213, 227, 231, 236, 247, 252 % of control. The T/C (dose: 2.5 mg/kg/injection, schedule: Q04DX003 (ip), vehicle: water, evaluated on day 35) was 203 and 212 % of control, the T/C (dose: 2.5 mg/kg/injection, schedule: Q04DX003 (ip), vehicle: water, evaluated on day 40) was 142, 183, 188, 205 (2×), 222, 260 % of control and the T/C (dose: 2.5 mg/kg/injection, schedule: Q04DX003 (ip), vehicle: water, evaluated on day 45) was 216 % of control. For the same compound, the T/C (dose: 2.5 mg/kg/injection, schedule: Q04DX003 (iv), vehicle: saline) was 138 % of control, the survivor count (dose: 3.0 mg/kg/injection, schedule: Q01DX009 (ip), vehicle: Klucel (hydroxypropylcellulose) (HPC)) was 6 of 6 and the T/C (dose: 3.75 mg/kg/injection, schedule: Q04DX003 (ip), vehicle: water, evaluated on day 30) was 178, 182, 185, 194, 197, 218, 221, 223, 226, 237, 241, 263 % of control. The T/C (dose: 3.75 mg/kg/injection, schedule: Q04DX003 (ip), vehicle: water, evaluated on day 35) was 109 and 225 % of control, the T/C (dose: 3.75 mg/kg/injection, schedule: Q04DX003 (ip), vehicle: water, evaluated on day 45) was 224 % of control and the T/C (dose: 3.75 mg/kg/injection, schedule: Q04DX003 (ip), vehicle: water, evaluated on day 60) was 161 % of control. For the same compound, the T/C (dose: 4.0 mg/kg/injection, schedule: Q01DX005 (ip), vehicle: saline, evaluated on day 20) was 192 % of control, the T/C (dose: 4.0 mg/kg/injection, schedule: Q01DX005 (ip), vehicle: saline, evaluated on day 30) was 267 and 270 % of control and the T/C (dose: 4.0 mg/kg/injection, schedule: Q01DX005 (ip), vehicle: saline, evaluated on day 45) was 346 % of control. For the same compound, the T/C (dose: 4.0 mg/kg/injection, schedule: Q01DX009 (ip), vehicle: water) was 105, 120, 128, 207, 250 % of control, the survivor count (dose: 4.0 mg/kg/injection, schedule: Q03HX008 (ip), vehicle: saline) was 9 of 10, 10 of 10, 6 of 6 and the T/C (dose: 4.17 mg/kg/injection, schedule: Q01DX009 (ip), vehicle: saline) was 130 % of control. For the same compound, the survivor count (dose: 5.0 mg/kg/injection, schedule: Q01DX001 (ip), vehicle: Klucel (hydroxypropylcellulose) (HPC)) was 6 of 6, the T/C (dose: 5.0 mg/kg/injection, schedule: Q01DX001 (ip), vehicle: water, evaluated on day 30) was 166, 168, 172, 187 % of control and the T/C (dose: 5.0 mg/kg/injection, schedule: Q01DX001 (ip), vehicle: water, evaluated on day 35) was 218 % of control. For the same compound, the T/C (dose: 5.0 mg/kg/injection, schedule: Q01DX001 (iv), vehicle: saline) was 142 % of control, the T/C (dose: 5.0 mg/kg/injection, schedule: Q04DX003 (ip), vehicle: saline, evaluated on day 30) was 252 and 265 % of control and the T/C (dose: 5.0 mg/kg/injection, schedule: Q04DX003 (ip), vehicle: saline, evaluated on day 45) was 213 and 305 % of control. The T/C (dose: 5.0 mg/kg/injection, schedule: Q04DX003 (ip), vehicle: saline, evaluated on day 50) was 315 % of control, the T/C (dose: 5.0 mg/kg/injection, schedule: Q04DX003 (ip), vehicle: saline, evaluated on day 60) was 234 and 284 % of control and the T/C (dose: 5.0 mg/kg/injection, schedule: Q04DX003 (ip), vehicle: water, evaluated on day 30) was 117, 132, 150, 166, 210, 214, 225, 232, 242, 248, 250, 254, 260, 265, 272 % of control (2×). The T/C (dose: 5.0 mg/kg/injection, schedule: Q04DX003 (ip), vehicle: water, evaluated on day 35) was 206 and 257 % of control, the T/C (dose: 5.0 mg/kg/injection, schedule: Q04DX003 (ip), vehicle: water, evaluated on day 40) was 199, 226, 250, 252 (2×), 329, 366 % of control and the T/C (dose: 5.0 mg/kg/injection, schedule: Q04DX003 (ip), vehicle: water, evaluated on day 45) was 272 % of control. For the same compound, the T/C (dose: 6.7 mg/kg/injection, schedule: Q01DX001 (ip), vehicle: saline) was 140 % of control, the T/C (dose: 7.5 mg/kg/injection, schedule: Q04DX003 (ip), vehicle: saline, evaluated on day 45) was 276 and 394 % of control and the T/C (dose: 7.5 mg/kg/injection, schedule: Q04DX003 (ip), vehicle: saline, evaluated on day 60) was 297 and 362 % of control. For the same compound, the T/C (dose: 7.5 mg/kg/injection, schedule: Q04DX003 (ip), vehicle: water, evaluated on day 30) was 123, 190, 194, 223, 242, 254, 263, 264, 264 [5 of 6 alive], 270, 272, 291 % of control, the T/C (dose: 7.5 mg/kg/injection, schedule: Q04DX003 (ip), vehicle: water, evaluated on day 35) was 250 and 309 % of control and the T/C (dose: 7.5 mg/kg/injection, schedule: Q04DX003 (ip), vehicle: water, evaluated on day 45) was 300 and 308 % of control. The T/C (dose: 7.5 mg/kg/injection, schedule: Q04DX003 (ip), vehicle: water, evaluated on day 60) was 211 % of control, the T/C (dose: 8.0 mg/kg/injection, schedule: Q01DX005 (ip), vehicle: saline, evaluated on day 30) was 270 % of control and the T/C (dose: 8.0 mg/kg/injection, schedule: Q01DX005 (ip), vehicle: saline, evaluated on day 45) was 110 % of control. The survivor count (dose: 8.0 mg/kg/injection, schedule: Q01DX005 (ip), vehicle: saline) was 6 of 6 (2×), the survivor count (dose: 8.0 mg/kg/injection, schedule: Q01DX009 (ip), vehicle: saline) was 10 of 10 and the T/C [1] was 110 % of control. The survivor count [1] was 6 of 6, the survivor count (dose: 8.0 mg/kg/injection, schedule: Q03HX008 (ip), vehicle: saline) was 2 of 10, 2 of 6, 3 of 6, 9 of 10, 6 of 6 and the survivor count (dose: 10.0 mg/kg/injection, schedule: Q01DX001 (ip), vehicle: Klucel (hydroxypropylcellulose) (HPC)) was 6 of 6. The T/C (dose: 10.0 mg/kg/injection, schedule: Q01DX001 (ip), vehicle: saline, evaluated on day 11) was 194 % of control, the T/C (dose: 10.0 mg/kg/injection, schedule: Q01DX001 (ip), vehicle: saline, evaluated on day 30) was 248 % of control and the T/C (dose: 10.0 mg/kg/injection, schedule: Q01DX001 (ip), vehicle: saline, evaluated on day 44) was 196 % of control. For the same compound, the T/C (dose: 10.0 mg/kg/injection, schedule: Q01DX001 (ip), vehicle: saline, evaluated on day 45) was 171, 244, 245, 250, 270, 281, 306, 321, 420 % of control, the T/C (dose: 10.0 mg/kg/injection, schedule: Q01DX001 (ip), vehicle: saline, evaluated on day 47) was 252 % of control and the T/C (dose: 10.0 mg/kg/injection, schedule: Q01DX001 (ip), vehicle: saline, evaluated on day 60) was 195, 211, 245 [9 of 10 alive], 262, 276, 405, 560, 582 % of control. The T/C (dose: 10.0 mg/kg/injection, schedule: Q01DX001 (ip), vehicle: water, evaluated on day 30) was 175, 176, 204, 235 % of control.
